{
  "sequences": {"note": "The chains behind the UniProt entries cited, without tags or fusion partners. Where a name states a change or a piece, a line headed by the entry shows the natural chain unless it says otherwise.", "UniProt P51450": "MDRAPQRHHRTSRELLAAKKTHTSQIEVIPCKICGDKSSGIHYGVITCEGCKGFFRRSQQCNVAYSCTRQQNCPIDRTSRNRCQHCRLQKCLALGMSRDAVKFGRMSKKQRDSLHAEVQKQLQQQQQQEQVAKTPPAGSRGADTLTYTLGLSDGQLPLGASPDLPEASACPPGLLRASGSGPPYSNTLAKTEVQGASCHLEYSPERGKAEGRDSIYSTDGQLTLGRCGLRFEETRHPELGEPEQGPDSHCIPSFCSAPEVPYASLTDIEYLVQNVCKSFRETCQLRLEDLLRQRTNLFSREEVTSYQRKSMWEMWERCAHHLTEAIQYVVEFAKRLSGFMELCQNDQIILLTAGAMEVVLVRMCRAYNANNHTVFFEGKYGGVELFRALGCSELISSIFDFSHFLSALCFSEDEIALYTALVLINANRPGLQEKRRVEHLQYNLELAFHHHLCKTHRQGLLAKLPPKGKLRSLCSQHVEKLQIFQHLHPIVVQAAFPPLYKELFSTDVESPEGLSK"},
  "source": "PubChem BioAssay AID2551",
  "about": "(National Center for Advancing Translational Sciences (NCATS), 2010)",
  "note": "Hit rate of the full screen: of about 310,000 compounds, about 17,000 (5.5%) were called active. The inconclusive results got no clear call from the source; some entries with a clear call stand among them for comparison. Calls come from the whole dose curve; as a rule, active = well fitted inhibition curve with a large enough effect; inconclusive = small, poorly fitted or top-dose-only effect, or effect the other way; inactive = no such curve, though single readings can be large or run the other way. Potencies of inconclusive entries are doubtful fits and often do not repeat. Potency is the fitted concentration of half-maximal effect.",
  "data": [
    {"molecular_target": "Nuclear receptor ROR-gamma (Mus musculus) (UniProt P51450)", "experiment": "qHTS for inhibitors of ROR gamma transcriptional activity; note: nearly all actives have a fitted effect of over 60% in size", "settings": "Drosophila S2 Gal4-RORgamma UAS-luciferase reporter, 20 h; series mostly up to 53.6 µM", "summary_of_the_method": "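Drosophila Schneider cells stably carrying a metallothionein-driven Gal4 DBD–ROR gamma fusion and a UAS-Photinus luciferase reporter were exposed to compound for 1 hr, then induced with copper sulfate (700 uM final) for 20 hr at ambient temperature before luminescence reading.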", "values": [
      {"smiles": "Cc1[nH]c2ccccc2c1CN1CCc2ccccc2C1", "Potency": "active: 11.2 µM"},
      {"smiles": "Cc1cc(NS(=O)(=O)c2ccccc2)n(-c2ccccc2)n1", "Potency": "inconclusive: 6.31 µM [inhibitor, single point]"},
      {"smiles": "CCC(=O)N1c2ccc(S(=O)(=O)NCc3ccco3)cc2CC1C", "note": "(stereo unspecified)", "Potency": "inactive"},
      {"smiles": "Cc1ccc2c(c1)c1ncn(Cc3ccc(F)cc3)c(=O)c1n2C", "Potency": "inactive"},
      {"smiles": "Cc1ccc(S(=O)(=O)NNC(=O)c2ccccc2O)cc1", "Potency": "active: 11.2 µM"},
      {"smiles": "O=C(O)c1cccc([N+](=O)[O-])c1C(=O)Nc1cccc2ccccc12", "Potency": "inconclusive: 22.4 µM [inhibitor, single point]"},
      {"smiles": "COc1cc(C(CCN2CCCC2)c2c(OC)cc(OC)c3c(-c4ccccc4)cc(=O)oc23)cc(OC)c1OC", "note": "(stereo unspecified)", "Potency": "inconclusive: 35.5 µM [inhibitor, single point]"},
      {"smiles": "CCOC(=O)c1sc(NC(=O)Nc2ccccc2F)nc1C", "Potency": "active: 7.94 µM"},
      {"smiles": "Cc1ccc(C(=O)N2CCOCC2)cc1S(=O)(=O)N1CCOCC1", "Potency": "inactive"},
      {"smiles": "CCOc1ccc(-c2cc(CCCC(=O)NCCc3ccc(OC)c(OC)c3OC)no2)cc1", "Potency": "inconclusive: 5.62 µM [inhibitor, full curve, poor fit]"},
      {"smiles": "COc1ccc(-n2nc(C(=O)NCC(=O)NCCCN3CCOCC3)c3ccccc3c2=O)cc1OC", "Potency": "inconclusive: 15.8 µM [activator, single point]"},
      {"smiles": "c1ccn(-c2ccc(-c3ccn[nH]3)cc2)c1", "Potency": "inconclusive: 3.55 µM [activator, partial curve]"},
      {"smiles": "Cn1c(=O)c(C(=O)CN2CCCc3ccccc32)c(N)n(Cc2ccccc2)c1=O", "Potency": "inconclusive: 14.1 µM [inhibitor, single point]"},
      {"smiles": "COC(=O)C1=C(C)N(CCC2=CCCCC2)C(=O)C1", "Potency": "inconclusive: 22.4 µM [inhibitor, single point]"},
      {"smiles": "C=CCn1c(C)cc(C2=NNC(=Nc3ccc(C)cc3)SC2)c1C", "Potency": "inactive"},
      {"smiles": "Cc1cc(C)nc(Nc2nc(=O)c3ccccc3s2)n1", "Potency": "inconclusive: 14.1 µM [inhibitor, single point]"},
      {"smiles": "COc1ccc(CN2CC(=O)N(c3cccc(Cl)c3)C2=S)cc1OC", "Potency": "inactive"},
      {"smiles": "N/C(=N\\OC(=O)Cc1ccc(-c2ccccc2)cc1)c1cccnc1", "Potency": "inconclusive: 11.2 µM [activator, partial curve]"},
      {"smiles": "Cc1cc(C)nc(Nc2n[nH]c(-c3ccc(C(C)(C)C)cc3)n2)n1", "Potency": "active: 10 µM"},
      {"smiles": "CCCCSc1nnc(-c2ccccc2N)c(=O)[nH]1", "Potency": "inconclusive: 7.08 µM [activator, full curve, poor fit]"},
      {"smiles": "COc1ccc(/C=N/NC(=O)c2cc(-c3ccccc3)nc3ccccc23)c(OC)c1", "Potency": "inconclusive: 35.5 µM [inhibitor, single point]"}
    ]}
  ]
}
